Experimental data published in PubChem BioAssay AID504444 (National Center for Advancing Translational Sciences (NCATS), 2011).
The campaign covered roughly 360,000 compounds. About 7,500 (2.1%) were called active. Inconclusive results, whose numbers are uncertain, are shown with a selection of clear calls. Calls follow the shape of the dose curve; as a rule, active = well fitted inhibition curve with a large enough effect; inconclusive = small, poorly fitted or top-dose-only effect, or effect the other way; inactive = flat fitted curve, though single readings scatter. A potency beside an inconclusive call is a rough fit, not a confirmed value.
% is scaled to controls: 0 for no effect and ±100 for the full control effect; potency is read from the fitted curve at half-maximal effect.

Test: Nrf2 qHTS screen for inhibitors; also: nearly all actives have a fitted effect of over 60% in size
Settings: A549 ARE-Fluc reporter, luciferase luminescence, 18-24 h; activity change, negative = inhibition: at 46 µM (top of the series)
Method in brief: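 Concentration-response testing used A549 ARE_Fluc cells at 5000 cells/well. Following an 18-24 h compound incubation, viability was read by fluorescence (Ex 405/Em 525) and luciferase output by luminescence.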
For `Cc1ccc(S(=O)(=O)N(C)c2c(C)ccc(S(=O)(=O)NC(C)(C)C)c2C)cc1`, the Potency was inconclusive: 23.1 µM [falling, partial curve, poor fit].
With `CCN(CC1COc2ccccc2O1)C(=S)Nc1ccccc1` (configuration not stated) the Potency was inconclusive: 7.31 µM [falling, partial curve].
For `Cc1ccc2nc(N=C(N)N)nc(C)c2c1`, the Potency was inconclusive: 3.26 µM [falling, partial curve, poor fit].
In the case of `O=C(/C=C/c1ccco1)NC(=S)Nc1cc(-c2nc3ccccc3s2)ccc1Cl`, the Potency is reported as inconclusive: 2.91 µM [activator, full curve, poor fit].
In the case of `Cn1c(SCc2ccccc2Cl)nc(=O)c2c1NC(=O)CC2c1cc(F)ccc1F` (configuration not stated), the “activity change, negative = inhibition” value is reported as inactive: 6.88%.
For `CCCC(=O)Nc1ccc(NC(=O)c2ccccn2)cn1`, the Potency was inconclusive: 2.06 µM [activator, full curve].
In the case of `CC(=O)c1cccc(N=c2scc(-c3ccc(S(=O)(=O)N4CCOCC4)cc3)n2CCO)c1`, the Potency is reported as active: 14.6 µM.
In the case of `Cc1nn(Cc2c(F)c(F)c(F)c(F)c2F)c(C)c1NC(=O)c1ccc(COc2ccc(Cl)cc2Cl)o1`, the Potency is reported as active: 16.4 µM.
For `CS(=O)(=O)N(CC(=O)N1CCCCCC1)c1ccc(Br)cc1`, the “activity change, negative = inhibition” value was inactive: -6.15%.
For `C/C(=N/NC(=O)c1ccoc1C)c1ccc(N2CCOCC2)cc1`, the Potency was inconclusive: 14.6 µM [activator, single point].
For `COc1ccc(Nc2ncc(C(=O)N3CCN(c4ccccc4OC)CC3)c3ccccc23)cc1`, the Potency was inconclusive: 23.1 µM [falling, partial curve, poor fit].
For `CCCCCCc1ccc(N2C[C@H](Cc3ccccc3)[C@@H](CC(=O)NCc3ccc(OC)cc3)C2=O)cc1`, the Potency was inconclusive: 32.6 µM [falling, single point].
With `Cc1ccc(Cl)cc1NS(=O)(=O)c1ccc2oc(=O)ccc2c1` the Potency was inconclusive: 23.1 µM [falling, single point].
For `CC(C)(C)CC(C)(C)N=C1Nc2cc(Cl)c(Cl)cc2NC12C[C@H]1CCC(=O)N3CC[C@@H](C2)[C@@H]13` (some centres not stated), the Potency was inconclusive: 29.1 µM [falling, single point].
With `COc1cccc(-c2csc3nnc(SCC(=O)NCc4cccs4)n23)c1` the Potency was inconclusive: 18.4 µM [falling, partial curve, poor fit].
For `Cc1ccc(CSc2cn(CCNC(=O)c3cccs3)c3ccccc23)cc1`, the Potency was inconclusive: 29.1 µM [falling, single point].
In the case of `C=CCOc1ccccc1CNCc1cccnc1`, the Potency is reported as inconclusive: 2.31 µM [falling, partial curve].
In the case of `Cc1nc(-c2ccc([N+](=O)[O-])cc2)sc1C(=O)O`, the Potency is reported as inconclusive: 29.1 µM [activator, single point].
For `CC1CC(C)(C)CC2(C1)NC(=O)N(CC(=O)N1CCN(S(=O)(=O)c3ccc(F)c(F)c3F)CC1)C2=O` (configuration not stated), the “activity change, negative = inhibition” value was inactive: 2.05%.
In the case of `COc1ccccc1CNC(=O)COC(=O)/C=C/c1ccc2ccccc2n1`, the Potency is reported as inconclusive: 32.6 µM [falling, single point].
With `Cn1c(/C=C/c2ccccc2)nc2ccccc2c1=O` the Potency was inconclusive: 5.17 µM [activator, full curve].
With `Cc1ccc(O)c(-c2cc(-c3ccc(F)cc3)no2)c1` the Potency was inconclusive: 29.1 µM [activator, single point].
For `O=S(=O)(c1ccc(OC(F)(F)F)cc1)N1CCN(c2nc(-c3ccccc3)nc3ccccc23)CC1`, the “activity change, negative = inhibition” value was inactive: 28.9%.
For `Cc1ccc(SCCNS(=O)(=O)c2ccc3c(c2)OCCO3)cc1`, the Potency was inconclusive: 2.06 µM [falling, partial curve, poor fit].
With `O=C(Nc1nc2c(Cl)cccc2s1)c1ccc(Br)o1` the “activity change, negative = inhibition” value was inactive: 10.2%.
With `O=C(Nc1ccc(C(F)(F)F)cc1)C1CCCCN1S(=O)(=O)c1ccccc1` (configuration not stated) the Potency was inconclusive: 32.6 µM [falling, single point].
With `C=CCOc1ccc(Br)cc1/C=N/O` the Potency was inconclusive: 1.3 µM [activator, full curve, poor fit].
In the case of `CCN(CC)c1nc(-c2ccccn2)nc(-c2ccccc2)c1C#N`, the Potency is reported as inconclusive: 8.2 µM [falling, partial curve].
With `O=C(c1cc2c(s1)-c1ccccc1S(=O)(=O)C2)N1CCN(Cc2ccccc2)CC1` the Potency was active: 18.4 µM.
In the case of `C[C@@H]1CN([C@H](C)CO)C(=O)c2cccc(NS(=O)(=O)c3ccccc3)c2O[C@H]1CN(C)C`, the “activity change, negative = inhibition” value is reported as inactive: 8.08%.
With `O=C(NC1CCCCC1)c1ccc(S(=O)(=O)NCc2ccco2)cc1` the “activity change, negative = inhibition” value was inactive: 9.95%.
For `CC(=O)Nc1ccc2nc(NC(=O)c3ccc([N+](=O)[O-])o3)sc2c1`, the Potency was inconclusive: 20.6 µM [activator, partial curve, poor fit].
For `COc1ccc(C(=O)N2CCN(c3ccc(NC(=O)c4cccs4)cc3)CC2)cc1`, the “activity change, negative = inhibition” value was inactive: -19.1%.
For `COc1cc(OC)cc(C(=O)Nc2ccc3c(c2)n(C)c(=O)c(=O)n3C)c1`, the Potency was inconclusive: 29.1 µM [falling, single point].
For `NC(N)=N/N=C/c1ccc2cccc(OCc3ccccc3)c2n1`, the “activity change, negative = inhibition” value was inactive: -27.5%.
In the case of `Cc1cc(NCc2ccc(Cl)cc2)n2cnnc2n1`, the Potency is reported as inconclusive: 11.6 µM [falling, single point].
For `COc1ccc(-c2nc3c(c(=O)n(C)c(=O)n3C)n2CC2CC(c3ccccc3)=NO2)cc1OC` (configuration not stated), the “activity change, negative = inhibition” value was inactive: -6.33%.
With `O=C(Nc1nnc(S(=O)(=O)N2CCCCCC2)s1)c1ccccc1` the Potency was inconclusive: 0.731 µM [activator, full curve, poor fit].
With `O=C(Nc1ccc(F)cc1)c1ccc2c(c1)NC(=O)c1ccccc1S2` the Potency was inconclusive: 16.4 µM [falling, partial curve, poor fit].
In the case of `CCOC(=O)c1cccc(C2=CC(=O)C[C@H](c3ccc(OC)cc3)C2)c1`, the Potency is reported as inconclusive: 11.6 µM [activator, partial curve, poor fit].
With `CCOC(=O)C1CCCN(S(=O)(=O)c2ccc3ccccc3c2)C1` (configuration not stated) the Potency was inconclusive: 16.4 µM [falling, partial curve, poor fit].
For `CCOC(=O)CS(=O)(=O)c1nc(-c2ccccc2)cc(C(F)(F)F)n1`, the Potency was inconclusive: 23.1 µM [falling, single point].
